This passage reports binding results from patent publication US20160193294A1.

This assay concerns the target T1, CD44 (mouse, on bone marrow cells) (mouse) (UniProt P15379).
T1 sequence (looked up): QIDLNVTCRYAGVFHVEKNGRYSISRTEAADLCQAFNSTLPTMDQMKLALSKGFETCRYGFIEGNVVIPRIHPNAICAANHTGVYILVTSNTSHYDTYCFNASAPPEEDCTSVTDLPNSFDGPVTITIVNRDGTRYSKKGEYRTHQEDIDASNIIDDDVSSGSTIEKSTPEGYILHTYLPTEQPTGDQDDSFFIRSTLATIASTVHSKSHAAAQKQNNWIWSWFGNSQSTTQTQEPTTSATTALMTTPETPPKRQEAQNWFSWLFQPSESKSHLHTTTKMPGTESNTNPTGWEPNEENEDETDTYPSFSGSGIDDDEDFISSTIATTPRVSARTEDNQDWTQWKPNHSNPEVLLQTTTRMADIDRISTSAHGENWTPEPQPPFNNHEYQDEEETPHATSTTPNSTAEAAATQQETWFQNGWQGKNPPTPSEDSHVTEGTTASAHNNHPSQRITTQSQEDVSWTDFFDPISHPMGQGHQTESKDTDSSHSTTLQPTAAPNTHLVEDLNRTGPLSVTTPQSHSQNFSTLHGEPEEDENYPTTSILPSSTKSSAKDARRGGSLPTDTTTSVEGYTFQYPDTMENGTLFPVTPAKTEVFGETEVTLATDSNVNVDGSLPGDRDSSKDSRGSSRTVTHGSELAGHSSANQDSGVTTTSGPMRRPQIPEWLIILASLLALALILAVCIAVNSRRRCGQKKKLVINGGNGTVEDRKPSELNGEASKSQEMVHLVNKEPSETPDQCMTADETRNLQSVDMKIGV
Put plainly: flow cytometry: soluble selectin-IgMFc on bone marrow granulocytes of wild-type and knock-out mice.

No constants are given. Whether binding was seen depends on the method and setting. Some entries that bind do so weakly or less than the wild type. Sequences can lack the tags named with a protein.

B1: recombinant human E-selectin extracellular domain fused with the Fc fragment of human IgM (Fc fusion, UniProt P16581 22-556, looked up, not shown: a dimerising Fc or GST)
chain: WSYNTSTEAMTYDEASAYCQQRYTHLVAIQNKEEIEYLNSILSYSPSYYWIGIRKVNNVWVWVGTQKPLTEEAKNWAPGEPNNRQKDEDCVEIYIKREKDVGMWNDERCSKKKLALCYTAACTNTSCSGHGECVETINNYTCKCDPGFSGLKCEQIVNCTALESPEHGSLVCSHPLGNFSYNSSCSISCDRGYLPSSMETMQCMSSGEWSAPIPACNVVECDAVTNPANGFVECFQNPGSFPWNTTCTFDCEEGFELMGAQSLQCTSSGNWDNEKPTCKAVTCRAVRQPQNGSVRCSHSPAGEFTFKSSCNFTCEEGFMLQGPAQVECTTQGQWTQQIPVCEAFQCTALSNPERGYMNCLPSASGSFRYGSSCEFSCEQGFVLKGSKRLQCGPTGEWDNEKPTCEAVRCDAVHQPPKGLVRCAHSPIGEFTYKSSCAFSCEEGFELHGSTQLECTSQGQWTEEVPSCQVVKCSSLAVPGKINMSCSGEPVFGTVCKFACPEGWTLNGSAARTCGATGHWSGLLPTCEAPTESNIP
Turning to B1, the binding result is recorded as “binds”.
